The record followed here is the supplement of paper PMC12067093, “Discovery and optimisation of a covalent ligand for TRIM25 and its application to targeted protein ubiquitination” (Chemical Science, 2025).

By UniProt entry, the sequences of proteins in these tests, tags left out. Where a name states a change or a piece, a line headed by the entry shows the natural chain unless it says otherwise.
UniProt P22234: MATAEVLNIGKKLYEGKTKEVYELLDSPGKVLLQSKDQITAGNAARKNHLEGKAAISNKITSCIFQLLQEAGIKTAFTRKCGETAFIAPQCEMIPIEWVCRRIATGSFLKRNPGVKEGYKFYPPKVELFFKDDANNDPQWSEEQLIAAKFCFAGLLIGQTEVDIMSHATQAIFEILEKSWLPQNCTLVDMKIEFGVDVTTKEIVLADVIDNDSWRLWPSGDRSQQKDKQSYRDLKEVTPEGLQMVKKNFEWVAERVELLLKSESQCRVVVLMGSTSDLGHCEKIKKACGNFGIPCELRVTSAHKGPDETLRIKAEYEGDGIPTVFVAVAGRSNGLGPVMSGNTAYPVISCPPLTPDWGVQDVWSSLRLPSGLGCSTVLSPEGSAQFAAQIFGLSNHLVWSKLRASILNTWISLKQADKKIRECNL
UniProt Q460N5, whole entry, looked up: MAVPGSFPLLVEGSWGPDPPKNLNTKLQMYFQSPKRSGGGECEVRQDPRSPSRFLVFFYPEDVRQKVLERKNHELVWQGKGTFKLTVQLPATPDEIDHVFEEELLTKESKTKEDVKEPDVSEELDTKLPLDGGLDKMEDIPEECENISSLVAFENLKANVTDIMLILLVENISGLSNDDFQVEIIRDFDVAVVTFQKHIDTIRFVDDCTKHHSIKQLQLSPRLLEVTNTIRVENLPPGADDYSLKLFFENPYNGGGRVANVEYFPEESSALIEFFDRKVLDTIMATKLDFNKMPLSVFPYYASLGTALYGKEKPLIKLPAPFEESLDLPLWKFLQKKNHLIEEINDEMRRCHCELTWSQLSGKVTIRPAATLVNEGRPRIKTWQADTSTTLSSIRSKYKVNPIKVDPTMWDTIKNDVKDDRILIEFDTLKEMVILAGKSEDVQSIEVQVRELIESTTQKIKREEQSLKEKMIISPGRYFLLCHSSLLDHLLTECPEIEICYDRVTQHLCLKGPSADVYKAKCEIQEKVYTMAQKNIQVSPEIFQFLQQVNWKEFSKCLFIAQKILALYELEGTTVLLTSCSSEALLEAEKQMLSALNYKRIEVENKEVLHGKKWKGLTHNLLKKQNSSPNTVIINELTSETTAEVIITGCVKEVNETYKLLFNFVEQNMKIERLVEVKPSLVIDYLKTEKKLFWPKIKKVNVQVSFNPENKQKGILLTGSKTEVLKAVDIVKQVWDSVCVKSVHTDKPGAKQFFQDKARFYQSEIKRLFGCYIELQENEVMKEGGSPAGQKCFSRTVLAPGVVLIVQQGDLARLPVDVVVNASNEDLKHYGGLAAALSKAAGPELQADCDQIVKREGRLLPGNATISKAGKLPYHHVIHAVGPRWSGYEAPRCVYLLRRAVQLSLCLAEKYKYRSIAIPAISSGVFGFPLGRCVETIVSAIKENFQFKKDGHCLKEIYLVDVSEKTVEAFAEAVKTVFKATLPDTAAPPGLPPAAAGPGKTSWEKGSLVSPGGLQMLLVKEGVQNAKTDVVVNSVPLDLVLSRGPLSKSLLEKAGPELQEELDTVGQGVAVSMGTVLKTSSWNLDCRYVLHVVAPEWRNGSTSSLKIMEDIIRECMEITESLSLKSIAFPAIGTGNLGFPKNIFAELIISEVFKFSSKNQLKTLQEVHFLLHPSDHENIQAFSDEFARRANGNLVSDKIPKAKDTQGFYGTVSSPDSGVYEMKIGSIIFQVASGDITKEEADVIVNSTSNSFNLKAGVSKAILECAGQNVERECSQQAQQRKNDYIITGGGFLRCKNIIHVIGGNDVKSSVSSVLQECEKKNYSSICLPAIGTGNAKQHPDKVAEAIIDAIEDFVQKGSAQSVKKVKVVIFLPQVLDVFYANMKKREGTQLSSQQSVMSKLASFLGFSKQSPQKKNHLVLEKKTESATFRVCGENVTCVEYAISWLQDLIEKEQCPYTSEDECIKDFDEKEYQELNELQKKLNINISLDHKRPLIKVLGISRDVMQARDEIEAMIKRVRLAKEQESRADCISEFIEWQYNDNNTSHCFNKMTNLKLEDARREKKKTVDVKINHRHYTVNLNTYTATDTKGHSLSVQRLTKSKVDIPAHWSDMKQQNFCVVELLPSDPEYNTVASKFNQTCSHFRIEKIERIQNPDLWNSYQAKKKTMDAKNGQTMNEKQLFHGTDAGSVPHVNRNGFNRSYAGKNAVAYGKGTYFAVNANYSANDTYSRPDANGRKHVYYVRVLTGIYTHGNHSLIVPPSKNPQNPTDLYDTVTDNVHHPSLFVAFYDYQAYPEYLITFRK
UniProt O14841: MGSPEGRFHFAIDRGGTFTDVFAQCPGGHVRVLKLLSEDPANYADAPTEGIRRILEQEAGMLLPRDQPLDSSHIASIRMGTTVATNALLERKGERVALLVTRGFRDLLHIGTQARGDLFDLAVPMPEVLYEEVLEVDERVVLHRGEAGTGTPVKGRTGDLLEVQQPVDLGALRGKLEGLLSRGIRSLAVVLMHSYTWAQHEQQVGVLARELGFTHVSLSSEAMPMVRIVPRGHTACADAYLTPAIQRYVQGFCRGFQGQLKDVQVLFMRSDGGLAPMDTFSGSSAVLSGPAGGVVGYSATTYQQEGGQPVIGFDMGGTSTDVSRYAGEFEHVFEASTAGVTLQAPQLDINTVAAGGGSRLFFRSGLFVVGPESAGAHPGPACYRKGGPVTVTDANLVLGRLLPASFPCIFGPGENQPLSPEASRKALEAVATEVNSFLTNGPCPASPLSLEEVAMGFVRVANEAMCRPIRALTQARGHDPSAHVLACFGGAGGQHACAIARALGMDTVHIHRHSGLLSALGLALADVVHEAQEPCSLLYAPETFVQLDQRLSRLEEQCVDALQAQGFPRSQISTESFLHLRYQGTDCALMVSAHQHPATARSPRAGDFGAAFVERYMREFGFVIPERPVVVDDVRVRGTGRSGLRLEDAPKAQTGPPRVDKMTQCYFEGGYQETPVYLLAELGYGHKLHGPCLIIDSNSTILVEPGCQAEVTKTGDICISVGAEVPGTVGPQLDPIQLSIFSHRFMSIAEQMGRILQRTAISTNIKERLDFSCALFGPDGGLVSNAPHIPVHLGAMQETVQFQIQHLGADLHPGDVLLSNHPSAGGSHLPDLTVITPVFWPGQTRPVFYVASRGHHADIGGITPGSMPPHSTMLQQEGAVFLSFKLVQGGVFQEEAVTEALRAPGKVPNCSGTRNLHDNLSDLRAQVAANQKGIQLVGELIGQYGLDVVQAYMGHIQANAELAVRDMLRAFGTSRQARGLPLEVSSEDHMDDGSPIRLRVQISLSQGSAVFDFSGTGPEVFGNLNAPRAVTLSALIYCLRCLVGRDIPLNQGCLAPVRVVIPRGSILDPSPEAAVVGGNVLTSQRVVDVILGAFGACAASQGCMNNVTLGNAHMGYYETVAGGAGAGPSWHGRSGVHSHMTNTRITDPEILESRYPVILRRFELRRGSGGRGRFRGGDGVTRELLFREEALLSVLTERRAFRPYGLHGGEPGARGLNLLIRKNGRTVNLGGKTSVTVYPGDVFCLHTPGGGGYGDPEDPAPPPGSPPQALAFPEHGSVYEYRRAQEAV
UniProt Q9NVE7: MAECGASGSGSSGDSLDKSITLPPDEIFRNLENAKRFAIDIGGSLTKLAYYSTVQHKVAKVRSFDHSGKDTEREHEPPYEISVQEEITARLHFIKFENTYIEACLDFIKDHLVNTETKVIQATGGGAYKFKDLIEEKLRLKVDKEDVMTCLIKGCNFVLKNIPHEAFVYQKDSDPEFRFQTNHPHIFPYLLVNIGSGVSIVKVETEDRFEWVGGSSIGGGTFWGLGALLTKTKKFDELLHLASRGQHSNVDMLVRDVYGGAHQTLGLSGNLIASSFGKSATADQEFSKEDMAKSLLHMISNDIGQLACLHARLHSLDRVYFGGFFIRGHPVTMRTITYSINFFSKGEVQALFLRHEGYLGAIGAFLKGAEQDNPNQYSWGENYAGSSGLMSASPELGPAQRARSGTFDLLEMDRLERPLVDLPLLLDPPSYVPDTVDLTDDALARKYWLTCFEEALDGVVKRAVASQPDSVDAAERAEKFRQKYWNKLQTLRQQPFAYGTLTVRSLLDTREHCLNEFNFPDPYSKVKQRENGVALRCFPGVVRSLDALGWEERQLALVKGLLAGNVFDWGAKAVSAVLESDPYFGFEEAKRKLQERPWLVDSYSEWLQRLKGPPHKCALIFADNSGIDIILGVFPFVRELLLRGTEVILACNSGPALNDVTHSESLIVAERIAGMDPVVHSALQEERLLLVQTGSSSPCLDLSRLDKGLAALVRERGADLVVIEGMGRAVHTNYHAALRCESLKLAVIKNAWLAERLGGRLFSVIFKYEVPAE
UniProt O43913: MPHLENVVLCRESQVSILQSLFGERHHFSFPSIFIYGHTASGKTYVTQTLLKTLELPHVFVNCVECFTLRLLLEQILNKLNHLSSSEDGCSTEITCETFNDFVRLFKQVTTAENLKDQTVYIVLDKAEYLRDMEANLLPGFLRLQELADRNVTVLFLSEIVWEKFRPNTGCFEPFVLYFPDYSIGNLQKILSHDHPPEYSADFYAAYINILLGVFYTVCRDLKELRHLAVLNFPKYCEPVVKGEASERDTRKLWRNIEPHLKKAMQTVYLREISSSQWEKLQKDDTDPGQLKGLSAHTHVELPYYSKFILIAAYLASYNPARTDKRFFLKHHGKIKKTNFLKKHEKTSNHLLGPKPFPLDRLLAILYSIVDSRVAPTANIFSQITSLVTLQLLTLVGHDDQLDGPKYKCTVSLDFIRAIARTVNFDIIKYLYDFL
UniProt Q92882: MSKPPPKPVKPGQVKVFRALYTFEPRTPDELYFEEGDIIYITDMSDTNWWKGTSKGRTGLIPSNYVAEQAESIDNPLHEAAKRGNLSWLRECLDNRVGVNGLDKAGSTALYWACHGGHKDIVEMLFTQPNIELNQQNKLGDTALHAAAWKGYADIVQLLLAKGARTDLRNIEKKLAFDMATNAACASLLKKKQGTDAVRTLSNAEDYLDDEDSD
UniProt Q8N6M0: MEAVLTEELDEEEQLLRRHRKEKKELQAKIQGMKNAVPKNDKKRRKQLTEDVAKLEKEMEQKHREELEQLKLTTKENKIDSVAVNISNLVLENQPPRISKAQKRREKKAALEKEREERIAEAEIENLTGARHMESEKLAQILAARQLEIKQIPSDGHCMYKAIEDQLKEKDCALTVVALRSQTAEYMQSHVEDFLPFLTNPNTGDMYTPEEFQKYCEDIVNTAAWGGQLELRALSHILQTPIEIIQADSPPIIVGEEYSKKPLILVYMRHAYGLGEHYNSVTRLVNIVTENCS
UniProt Q8TEW0: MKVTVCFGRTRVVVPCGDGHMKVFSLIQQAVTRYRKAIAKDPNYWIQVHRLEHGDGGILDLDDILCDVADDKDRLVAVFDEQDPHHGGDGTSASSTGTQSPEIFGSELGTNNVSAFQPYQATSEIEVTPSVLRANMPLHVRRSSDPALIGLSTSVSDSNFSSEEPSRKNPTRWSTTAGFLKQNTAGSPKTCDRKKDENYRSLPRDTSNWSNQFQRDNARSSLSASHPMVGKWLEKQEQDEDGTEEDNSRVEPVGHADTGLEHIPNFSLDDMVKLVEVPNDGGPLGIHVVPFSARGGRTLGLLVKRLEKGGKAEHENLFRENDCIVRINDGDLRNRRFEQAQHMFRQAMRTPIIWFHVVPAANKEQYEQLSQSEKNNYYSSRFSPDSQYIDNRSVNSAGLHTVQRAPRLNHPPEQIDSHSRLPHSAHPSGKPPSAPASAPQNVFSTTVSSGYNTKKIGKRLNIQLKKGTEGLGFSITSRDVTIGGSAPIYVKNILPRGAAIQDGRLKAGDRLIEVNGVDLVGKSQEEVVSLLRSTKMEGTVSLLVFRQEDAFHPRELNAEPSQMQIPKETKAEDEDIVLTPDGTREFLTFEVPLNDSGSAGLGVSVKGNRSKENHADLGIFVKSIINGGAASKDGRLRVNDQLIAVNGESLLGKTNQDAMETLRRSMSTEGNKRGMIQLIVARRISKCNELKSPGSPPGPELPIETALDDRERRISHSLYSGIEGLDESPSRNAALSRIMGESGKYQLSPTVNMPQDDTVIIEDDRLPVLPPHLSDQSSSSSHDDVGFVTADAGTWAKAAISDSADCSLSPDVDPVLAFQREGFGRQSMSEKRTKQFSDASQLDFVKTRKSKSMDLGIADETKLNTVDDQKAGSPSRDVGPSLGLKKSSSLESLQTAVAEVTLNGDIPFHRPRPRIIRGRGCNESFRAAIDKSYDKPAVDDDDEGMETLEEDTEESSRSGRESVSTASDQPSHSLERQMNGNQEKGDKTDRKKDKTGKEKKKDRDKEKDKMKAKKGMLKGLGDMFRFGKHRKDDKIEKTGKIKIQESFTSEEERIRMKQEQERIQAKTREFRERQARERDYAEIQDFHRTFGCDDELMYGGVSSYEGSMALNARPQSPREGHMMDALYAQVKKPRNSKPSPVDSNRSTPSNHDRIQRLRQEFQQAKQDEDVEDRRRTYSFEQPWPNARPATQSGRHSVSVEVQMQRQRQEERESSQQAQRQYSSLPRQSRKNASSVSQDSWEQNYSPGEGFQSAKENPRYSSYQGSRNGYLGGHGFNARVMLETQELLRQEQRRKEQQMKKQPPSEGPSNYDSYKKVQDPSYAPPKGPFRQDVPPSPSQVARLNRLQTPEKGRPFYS

Some of the results follow.

Compound in this assay: CC1Cc2ccccc2N1C(=O)C1CCCN(C1)C(=O)CCl (mixture of isomers) [TRIM25 ligand 11 (diastereomer mixture)]
Kind of assay: probe-labelled cysteine peptide fold change vs DMSO (competition) (log2 fold change); higher = less target engagement (more negative = stronger competition). The note with it: THP-1, incubation time: 4 h.
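Note: competitive chemoproteomic profiling in live THP-1 cells with an iodoacetamide desthiobiotin (IA-DTB) probe, comparing probe-labelled peptide intensities in compound-treated cells against DMSO-treated controls.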

“PACSIN2_Q9UNF0_38+44_LCSDLMNCLHER (UniProt Q9UNF0)”: the “probe-labelled cysteine peptide fold change” value (10 µM) was -0.108 and the “probe-labelled cysteine peptide fold change” value (50 µM) is -0.191.
The corresponding values for “PAICS_P22234_81+91+100_CGETAFIAPQCEMIPIEWVCR (UniProt P22234)” are -0.11 and 0.0467.
The corresponding values for “PAPSS1_O43252_8_MEIPGSLCK (UniProt O43252)” are 0.0757 and 0.118.
In the case of “PARP14_Q460N5_208_FVDDCTK (UniProt Q460N5)”, the “probe-labelled cysteine peptide fold change” value by setting is: (10 µM) -0.0975; (50 µM) -0.12.
As to “OPLAH_O14841_236_GHTACADAYLTPAIQR (UniProt O14841)”, the “probe-labelled cysteine peptide fold change” value (10 µM) stood at 0.00254 and the “probe-labelled cysteine peptide fold change” value (50 µM) is 0.159.
Take “PACS2_Q86VP3_880_HFPICIFGHSK (UniProt Q86VP3)”: the “probe-labelled cysteine peptide fold change” value by setting is: (10 µM) -0.203; (50 µM) -0.036.
For “PAFAH1B3_Q15102_55_DKEPEVVFIGDSLVQLMHQCEIWR (UniProt Q15102)”, the “probe-labelled cysteine peptide fold change” value (10 µM) was 0.193 and the “probe-labelled cysteine peptide fold change” value (50 µM) is 0.141.
Taken in the same sequence, the figures for “PAICS_P22234_81_KCGETAFIAPQCEMIPIEWVCR (UniProt P22234)” were -0.174 and -0.0778.
As for “OR4D11_Q8NGI4_72_LHTPMYFLLRNLAILDICFSSTTAPKVLLDLLSK (UniProt Q8NGI4)”, the “probe-labelled cysteine peptide fold change” value by setting is: (10 µM) -0.157; (50 µM) -0.144.
The corresponding values for “P4HB_P07237_312_KEECPAVR (UniProt P07237)” are 0.02 and -0.00472.
As for “P3H1_Q32P28_568_LDTPLYFSYSHLVCR (UniProt Q32P28)”, the “probe-labelled cysteine peptide fold change” value was -0.0496 (10 µM) and 0.112 (50 µM).
The corresponding values for “OSBPL1A_Q9BXW6_303_CFDDTIHGFR (UniProt Q9BXW6)” are 0.003 and 0.0976.
Taken in the same sequence, the figures for “PAPOLA_P51003_293_QPEECNLNLPVWDPR (UniProt P51003)” were 0.0633 and 0.0321.
Taken in the same sequence, the figures for “OPHN1_O60890_24_CYEQELER (UniProt O60890)” were 0.0531 and 0.0319.
“ORC3_Q9UBD5_639_LHLECSR (UniProt Q9UBD5)”: the “probe-labelled cysteine peptide fold change” value was 0.0425 (10 µM) and 0.148 (50 µM).
Taken in the same sequence, the figures for “PARK7_Q99497_46_DPVQCSR (UniProt Q99497)” were 0.105 and 0.0666.
Taken in the same sequence, the figures for “PAICS_P22234_91_KCGETAFIAPQCEMIPIEWVCR (UniProt P22234)” were -0.0785 and -0.118.
The corresponding values for “OSBPL1A_Q9BXW6_746_CVLNFKPCGLFGK (UniProt Q9BXW6)” are 0.0146 and -0.0146.
In the case of “OXSM_Q9NWU1_327_CMAAALK (UniProt Q9NWU1)”, the “probe-labelled cysteine peptide fold change” value turned out to be 0.00932 (10 µM) and 0.00745 (50 µM).
The corresponding values for “PA2G4_Q9UQ80_296_MGVVECAK (UniProt Q9UQ80)” are -0.114 and -0.119.
The corresponding values for “PAK1IP1_Q9NWT1_106_HLISGAEDGLICIWDAK (UniProt Q9NWT1)” are 0.0804 and 0.269.
Taken in the same sequence, the figures for “OTUD4_Q01804_489_DEQAFPALSSSSVNQSASQSSNPCVQR (UniProt Q01804)” were 0.28 and -0.156.
For “PAPSS2_O95340_155_KIHESAGLPFFEIFVDAPLNICESR (UniProt O95340)”, the “probe-labelled cysteine peptide fold change” value reads like this: (10 µM) -0.0298; (50 µM) -0.464.
The corresponding values for “PANK4_Q9NVE7_699_LLLVQTGSSSPCLDLSR (UniProt Q9NVE7)” are 0.178 and 0.01.
Taken in the same sequence, the figures for “OSBPL5_Q9H0X9_14_FSLCPPSSTPQK (UniProt Q9H0X9)” were -0.0248 and -0.0205.
“PAG1_Q9NWQ8_355_SPSSCNDLYATVK (UniProt Q9NWQ8)”: the “probe-labelled cysteine peptide fold change” value by setting is: (10 µM) -0.0441; (50 µM) -0.297.
The corresponding values for “PABPC4_Q13310-3_488_VGSECPDR (UniProt Q13310)” are -0.118 and -0.166.
The corresponding values for “ORC5_O43913_96_LNHLSSSEDGCSTEITCETFNDFVR (UniProt O43913)” are 0.463 and 0.0635.
Taken in the same sequence, the figures for “OSBPL3_Q9H4L5_718_NLHDDSCYCK (UniProt Q9H4L5)” were 0.205 and 0.232.
Consider “PAPSS1_O43252_212_TDSCDVNDCVQQVVELLQER (UniProt O43252)”, for which the “probe-labelled cysteine peptide fold change” value is -0.323 (10 µM) and -0.237 (50 µM).
Taken in the same sequence, the figures for “OSBPL1A_Q9BXW6_171+182_TTELTALLNRPNPPDVNCSDQLGNTPLHCAAYR (UniProt Q9BXW6)” were 0.121 and -0.0218.
With “PARP1_P09874_24_CSESIPK (UniProt P09874)”, the “probe-labelled cysteine peptide fold change” value by setting is: (10 µM) -0.0701; (50 µM) 0.0334.
For the target “OSTF1_Q92882_114_AGSTALYWACHGGHK (UniProt Q92882)”, the “probe-labelled cysteine peptide fold change” value runs as follows: (10 µM) -0.0184; (50 µM) 0.00467.
Taken in the same sequence, the figures for “PAPSS1_O43252_295_EREYLQCLHFDCLLDGGVINLSVPIVLTATHEDK (UniProt O43252)” were 0.236 and 0.317.
Taken in the same sequence, the figures for “OPLAH_O14841_25_GGTFTDVFAQCPGGHVR (UniProt O14841)” were -0.206 and 0.286.
On to “OGT_O15294_315_GSVAEAEDCYNTALR (UniProt O15294)”, for which the “probe-labelled cysteine peptide fold change” value runs as follows: (10 µM) -0.107; (50 µM) -0.0543.
Regarding “OTUD6B_Q8N6M0_158_QIPSDGHCMYK (UniProt Q8N6M0)”, the “probe-labelled cysteine peptide fold change” value by setting is: (10 µM) -0.0851; (50 µM) -0.109.
Take “PARD3_Q8TEW0_66_LEHGDGGILDLDDILCDVADDK (UniProt Q8TEW0)”: the “probe-labelled cysteine peptide fold change” value (10 µM) was 0.204 and the “probe-labelled cysteine peptide fold change” value (50 µM) was 0.123.
On to “OSBPL2_Q9H1P3_273_CVLHFKPCGLFGK (UniProt Q9H1P3)”, for which the “probe-labelled cysteine peptide fold change” value is -0.023 (10 µM) and 0.205 (50 µM).
For “PADI2_Q9Y2J8_647_FLGEVHCGTNVR (UniProt Q9Y2J8)”, the “probe-labelled cysteine peptide fold change” value was -0.149 (10 µM) and -0.115 (50 µM).
With “PAN3_Q58A45_506_SSNFGYITSCYK (UniProt Q58A45)”, the “probe-labelled cysteine peptide fold change” value (10 µM) is -0.243 and the “probe-labelled cysteine peptide fold change” value (50 µM) amounted to 0.0441.
On to “OPA1_O60313_786_TQEQCVHNETK (UniProt O60313)”, for which the “probe-labelled cysteine peptide fold change” value runs as follows: (10 µM) -0.0558; (50 µM) -0.14.
